Results published in patent US20110008436A1 (published 2011).
These are yes or no findings as the source states them, for the method shown. Some binding calls cover weakened binding; strength is not graded here.

Amino acid sequences for entries named in this document (tags omitted). A change or cut given only in a name is not applied to a line headed by its entry.
UniProt P05790: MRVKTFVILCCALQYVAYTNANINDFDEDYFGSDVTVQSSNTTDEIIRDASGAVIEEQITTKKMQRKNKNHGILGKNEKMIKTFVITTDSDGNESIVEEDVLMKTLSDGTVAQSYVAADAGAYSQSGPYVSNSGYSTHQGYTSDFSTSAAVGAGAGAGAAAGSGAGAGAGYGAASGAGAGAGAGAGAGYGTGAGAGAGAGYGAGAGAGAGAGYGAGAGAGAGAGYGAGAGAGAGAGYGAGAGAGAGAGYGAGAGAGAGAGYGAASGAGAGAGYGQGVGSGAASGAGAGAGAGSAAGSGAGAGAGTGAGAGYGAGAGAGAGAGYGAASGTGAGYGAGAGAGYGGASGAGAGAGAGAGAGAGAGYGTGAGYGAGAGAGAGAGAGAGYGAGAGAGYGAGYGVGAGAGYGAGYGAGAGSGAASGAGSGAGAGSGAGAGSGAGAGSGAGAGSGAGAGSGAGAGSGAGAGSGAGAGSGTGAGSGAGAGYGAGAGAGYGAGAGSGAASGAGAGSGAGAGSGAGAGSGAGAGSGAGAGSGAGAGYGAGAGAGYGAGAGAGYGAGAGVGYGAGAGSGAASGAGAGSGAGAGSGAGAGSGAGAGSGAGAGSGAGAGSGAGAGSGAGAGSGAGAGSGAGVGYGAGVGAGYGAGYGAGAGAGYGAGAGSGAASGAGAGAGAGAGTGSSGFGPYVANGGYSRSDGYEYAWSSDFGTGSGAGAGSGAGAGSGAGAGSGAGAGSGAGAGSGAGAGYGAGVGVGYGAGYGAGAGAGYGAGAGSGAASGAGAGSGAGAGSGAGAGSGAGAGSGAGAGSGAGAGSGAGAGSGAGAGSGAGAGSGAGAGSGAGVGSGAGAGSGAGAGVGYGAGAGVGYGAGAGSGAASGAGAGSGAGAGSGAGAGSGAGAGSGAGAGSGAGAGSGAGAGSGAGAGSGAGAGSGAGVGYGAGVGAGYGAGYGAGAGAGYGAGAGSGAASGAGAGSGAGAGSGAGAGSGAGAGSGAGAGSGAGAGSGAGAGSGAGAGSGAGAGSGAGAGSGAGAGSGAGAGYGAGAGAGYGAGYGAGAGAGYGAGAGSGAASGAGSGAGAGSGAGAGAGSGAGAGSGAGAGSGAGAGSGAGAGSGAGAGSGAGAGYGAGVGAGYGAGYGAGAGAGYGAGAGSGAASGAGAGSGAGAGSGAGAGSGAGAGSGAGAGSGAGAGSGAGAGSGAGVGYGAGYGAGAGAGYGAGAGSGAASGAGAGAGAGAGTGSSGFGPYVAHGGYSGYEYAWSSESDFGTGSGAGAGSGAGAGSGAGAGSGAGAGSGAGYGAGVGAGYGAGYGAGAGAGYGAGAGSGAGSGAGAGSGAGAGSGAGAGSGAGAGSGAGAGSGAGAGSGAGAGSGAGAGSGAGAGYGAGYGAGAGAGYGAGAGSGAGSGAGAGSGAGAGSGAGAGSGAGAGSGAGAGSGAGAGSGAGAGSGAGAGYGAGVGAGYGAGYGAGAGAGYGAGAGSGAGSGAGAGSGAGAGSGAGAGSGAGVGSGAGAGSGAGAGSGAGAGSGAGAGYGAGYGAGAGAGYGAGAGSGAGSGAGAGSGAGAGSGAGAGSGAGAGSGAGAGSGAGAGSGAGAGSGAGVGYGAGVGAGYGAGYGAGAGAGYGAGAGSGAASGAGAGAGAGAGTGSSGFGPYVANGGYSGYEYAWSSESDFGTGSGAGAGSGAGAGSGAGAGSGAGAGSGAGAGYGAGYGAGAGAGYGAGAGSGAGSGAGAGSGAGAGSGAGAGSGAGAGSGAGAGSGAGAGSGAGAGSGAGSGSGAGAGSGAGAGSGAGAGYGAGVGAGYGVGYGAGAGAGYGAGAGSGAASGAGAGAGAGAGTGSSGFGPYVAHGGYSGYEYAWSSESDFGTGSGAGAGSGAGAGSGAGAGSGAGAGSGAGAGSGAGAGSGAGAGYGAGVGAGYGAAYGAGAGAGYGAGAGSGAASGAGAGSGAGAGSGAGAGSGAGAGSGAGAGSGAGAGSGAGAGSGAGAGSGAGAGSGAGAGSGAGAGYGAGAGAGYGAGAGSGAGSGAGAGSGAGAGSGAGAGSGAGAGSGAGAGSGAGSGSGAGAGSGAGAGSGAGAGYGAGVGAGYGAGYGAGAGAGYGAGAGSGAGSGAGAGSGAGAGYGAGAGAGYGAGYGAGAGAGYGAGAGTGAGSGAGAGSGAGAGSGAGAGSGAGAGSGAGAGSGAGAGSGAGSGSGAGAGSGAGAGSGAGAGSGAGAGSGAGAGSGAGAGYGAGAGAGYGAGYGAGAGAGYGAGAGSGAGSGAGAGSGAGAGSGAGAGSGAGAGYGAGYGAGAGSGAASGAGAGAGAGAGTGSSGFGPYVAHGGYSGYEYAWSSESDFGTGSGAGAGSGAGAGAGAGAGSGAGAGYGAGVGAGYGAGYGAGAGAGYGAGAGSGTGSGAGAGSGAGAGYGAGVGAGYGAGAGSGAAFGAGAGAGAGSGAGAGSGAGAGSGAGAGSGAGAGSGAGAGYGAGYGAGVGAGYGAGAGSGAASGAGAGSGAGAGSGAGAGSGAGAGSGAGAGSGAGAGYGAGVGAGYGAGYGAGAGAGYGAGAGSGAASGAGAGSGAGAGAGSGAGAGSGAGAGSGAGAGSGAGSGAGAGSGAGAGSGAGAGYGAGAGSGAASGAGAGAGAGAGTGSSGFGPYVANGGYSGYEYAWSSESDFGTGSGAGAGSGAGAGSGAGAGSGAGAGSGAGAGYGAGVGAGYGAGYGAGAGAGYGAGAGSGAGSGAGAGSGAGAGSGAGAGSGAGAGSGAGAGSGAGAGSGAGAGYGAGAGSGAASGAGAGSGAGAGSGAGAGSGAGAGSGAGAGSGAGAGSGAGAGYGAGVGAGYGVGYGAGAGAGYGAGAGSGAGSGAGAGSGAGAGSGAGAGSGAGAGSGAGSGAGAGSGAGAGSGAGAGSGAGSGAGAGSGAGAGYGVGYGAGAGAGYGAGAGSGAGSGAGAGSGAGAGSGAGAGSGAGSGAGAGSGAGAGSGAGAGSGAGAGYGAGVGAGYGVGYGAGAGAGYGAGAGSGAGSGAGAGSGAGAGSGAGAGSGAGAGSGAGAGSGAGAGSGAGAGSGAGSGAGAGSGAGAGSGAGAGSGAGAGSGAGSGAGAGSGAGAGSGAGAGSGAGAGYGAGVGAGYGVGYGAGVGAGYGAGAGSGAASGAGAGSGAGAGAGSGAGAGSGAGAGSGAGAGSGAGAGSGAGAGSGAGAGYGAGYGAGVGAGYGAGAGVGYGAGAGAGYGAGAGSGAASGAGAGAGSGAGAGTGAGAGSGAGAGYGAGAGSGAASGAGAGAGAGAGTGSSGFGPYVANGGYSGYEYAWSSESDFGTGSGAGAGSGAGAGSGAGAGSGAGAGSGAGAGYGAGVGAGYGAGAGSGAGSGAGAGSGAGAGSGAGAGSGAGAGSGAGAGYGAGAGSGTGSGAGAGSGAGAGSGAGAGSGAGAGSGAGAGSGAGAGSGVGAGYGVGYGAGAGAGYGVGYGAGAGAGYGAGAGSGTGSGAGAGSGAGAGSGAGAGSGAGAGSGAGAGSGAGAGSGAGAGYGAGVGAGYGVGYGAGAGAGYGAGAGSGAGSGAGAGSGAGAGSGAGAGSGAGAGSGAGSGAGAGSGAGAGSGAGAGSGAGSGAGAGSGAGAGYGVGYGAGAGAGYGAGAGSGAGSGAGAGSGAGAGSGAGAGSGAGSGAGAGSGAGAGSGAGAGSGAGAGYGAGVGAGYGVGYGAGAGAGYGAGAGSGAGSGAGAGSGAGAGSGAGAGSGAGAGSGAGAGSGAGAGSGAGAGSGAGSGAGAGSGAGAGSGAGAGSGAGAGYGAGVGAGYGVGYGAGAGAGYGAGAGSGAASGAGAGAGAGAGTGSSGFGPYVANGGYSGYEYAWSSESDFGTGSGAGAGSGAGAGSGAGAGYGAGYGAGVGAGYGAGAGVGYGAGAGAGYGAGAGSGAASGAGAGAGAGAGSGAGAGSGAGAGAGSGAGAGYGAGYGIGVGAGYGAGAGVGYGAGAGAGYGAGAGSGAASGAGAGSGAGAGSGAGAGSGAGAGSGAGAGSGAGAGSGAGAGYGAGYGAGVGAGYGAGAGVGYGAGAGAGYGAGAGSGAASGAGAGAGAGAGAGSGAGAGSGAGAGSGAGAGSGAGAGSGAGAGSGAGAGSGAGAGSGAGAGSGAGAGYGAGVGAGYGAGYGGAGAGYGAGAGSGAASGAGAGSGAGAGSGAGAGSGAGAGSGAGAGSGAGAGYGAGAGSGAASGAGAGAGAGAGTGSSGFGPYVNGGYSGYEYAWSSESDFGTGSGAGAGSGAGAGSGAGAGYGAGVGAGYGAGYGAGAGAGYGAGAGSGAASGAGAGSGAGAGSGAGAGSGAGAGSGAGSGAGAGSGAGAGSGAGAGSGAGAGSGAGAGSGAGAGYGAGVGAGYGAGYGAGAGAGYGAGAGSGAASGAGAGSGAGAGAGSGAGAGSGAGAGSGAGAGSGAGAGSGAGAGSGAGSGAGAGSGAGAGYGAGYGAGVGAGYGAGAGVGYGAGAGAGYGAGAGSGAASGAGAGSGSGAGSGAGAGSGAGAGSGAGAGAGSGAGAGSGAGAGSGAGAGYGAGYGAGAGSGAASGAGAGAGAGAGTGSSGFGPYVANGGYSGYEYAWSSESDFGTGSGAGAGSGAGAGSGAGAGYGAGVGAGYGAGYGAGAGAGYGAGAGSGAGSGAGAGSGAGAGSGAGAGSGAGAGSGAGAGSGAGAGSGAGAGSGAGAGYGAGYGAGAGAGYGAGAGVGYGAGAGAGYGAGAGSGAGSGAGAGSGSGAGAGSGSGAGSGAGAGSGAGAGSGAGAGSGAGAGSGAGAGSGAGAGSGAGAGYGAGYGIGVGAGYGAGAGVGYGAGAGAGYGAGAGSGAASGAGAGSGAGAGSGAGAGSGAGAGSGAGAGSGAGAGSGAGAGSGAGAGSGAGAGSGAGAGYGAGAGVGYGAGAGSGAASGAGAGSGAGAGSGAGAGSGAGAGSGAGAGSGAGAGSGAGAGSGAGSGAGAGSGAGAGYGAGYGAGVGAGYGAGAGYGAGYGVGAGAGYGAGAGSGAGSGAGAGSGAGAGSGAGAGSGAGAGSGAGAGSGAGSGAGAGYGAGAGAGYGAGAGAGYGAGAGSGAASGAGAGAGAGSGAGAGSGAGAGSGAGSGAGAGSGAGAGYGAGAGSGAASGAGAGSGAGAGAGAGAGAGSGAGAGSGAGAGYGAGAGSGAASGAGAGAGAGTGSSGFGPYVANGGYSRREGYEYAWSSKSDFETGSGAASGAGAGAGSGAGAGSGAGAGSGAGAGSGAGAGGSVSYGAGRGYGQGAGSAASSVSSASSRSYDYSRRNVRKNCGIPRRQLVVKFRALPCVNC
UniProt P21828: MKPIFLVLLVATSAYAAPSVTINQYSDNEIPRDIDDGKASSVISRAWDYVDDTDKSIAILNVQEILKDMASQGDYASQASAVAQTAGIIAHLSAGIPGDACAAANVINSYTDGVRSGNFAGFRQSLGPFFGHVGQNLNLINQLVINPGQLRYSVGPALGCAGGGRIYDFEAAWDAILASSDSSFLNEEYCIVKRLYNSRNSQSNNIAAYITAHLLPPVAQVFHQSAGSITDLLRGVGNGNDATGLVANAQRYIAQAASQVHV

Legend:
[1] = target: T1, Substantially sericin-depleted silk fibroin from Bombyx mori (dissolved in 9.3 M LiBr, dialysed, then gelled or precipitated) (Bombyx mori) (UniProt P05790+P21828); test: HPLC of 23RGD in silk precipitates
[2] = target: T1, Substantially sericin-depleted silk fibroin from Bombyx mori (dissolved in 9.3 M LiBr, dialysed, then gelled or precipitated) (Bombyx mori); test: HPLC of 23RGD in silk precipitates (FIG. 22)
[3] = target: T1, Substantially sericin-depleted silk fibroin from Bombyx mori (dissolved in 9.3 M LiBr, dialysed, then gelled or precipitated) (Bombyx mori); test: HPLC of rinse buffers and of the gel extract
[4] = target: T1, Substantially sericin-depleted silk fibroin from Bombyx mori (dissolved in 9.3 M LiBr, dialysed, then gelled or precipitated) (Bombyx mori); test: Precipitate seen on adding the 23RGD-ethanol accelerant to silk solution
[5] = target: T1, Substantially sericin-depleted silk fibroin from Bombyx mori (dissolved in 9.3 M LiBr, dialysed, then gelled or precipitated) (Bombyx mori); test: HPLC of gel made with a 3:1 23RGD:silk enhancer, rinsed several times in water over several days

Measured: binding

B1: 23RGD peptide (amphiphilic peptide …4SRL6R-NH2) (peptide)
peptide: GRGDIPASSKGGGGSRLLLLLLR
modifications: C-terminal amide (-NH2) as printed
binds: all assays above
